# Measured values reported in ChEMBL document CHEMBL4513155, “CO-ADD screening of University of Sydney (Australia) compounds” (2021).
# The list shows a part of the results. Potency and affinity values are given separately.
# System: Pseudomonas aeruginosa
# Details: Concentration 32 ug.mL-1; ASSAY_TEST Inhibition of Bacterial Growth; detection method Absorption (OD600); MEDIA CAMHB; plate type 384well; NBS; CORNING #3640; time 18 hr
row,SMILES,Inhibition
1,COC(COc1cncc2nnc(-c3ccc(C#N)cc3)n12)c1ccc(F)c(F)c1 (configuration not stated),5.71%
2,Fc1ccc(CCOc2cncc3nnc(-c4ccc(C(F)(F)F)nc4)n23)cc1F,7.52%
3,O.O=C1c2cccc3c(-n4cc(CN5CCCNCCN(Cc6cn(-c7ccc8c9c(cccc79)C(=O)N(CCCO)C8=O)nn6)CCCNCC5)nn4)ccc(c23)C(=O)N1CCCO.[Cl-].[Cl-].[Zn+2],13.01%
4,CCN1C(=O)c2cccc3c(-c4cn(CCN5CCCNCCN(CCn6cc([C@]7(O)CC[C@H]8[C@@H]9CCc%10cc(O)ccc%10[C@H]9CC[C@@]87C)nn6)CCCNCC5)nn4)ccc(c23)C1=O.OCCN1CCN(CCCN2c3ccccc3Sc3ccc(Cl)cc32)CC1.[O-][Cl+3]([O-])([O-])[O-].[O-][Cl+3]([O-])([O-])[O-].[Zn+2],8.33%
5,CN(C)C(COc1cncc2nnc(-c3ccc(C#N)cc3)n12)c1ccc(F)c(F)c1 (configuration not stated),7.19%
6,N#Cc1ccc(-c2nnc3cncc(OCC(O)c4ccc(F)c(F)c4)n23)cc1 (configuration not stated),8.24%
7,Fc1ccc(CCOc2cncc3nnc(-c4ccc(Cl)cc4)n23)cc1F,4.4%
